# Test results published in patent US20120213774A1.
# The chains behind the UniProt entries cited, without tags or fusion partners. Residues count along the entry.
# UniProt Q01638, residues 19-328: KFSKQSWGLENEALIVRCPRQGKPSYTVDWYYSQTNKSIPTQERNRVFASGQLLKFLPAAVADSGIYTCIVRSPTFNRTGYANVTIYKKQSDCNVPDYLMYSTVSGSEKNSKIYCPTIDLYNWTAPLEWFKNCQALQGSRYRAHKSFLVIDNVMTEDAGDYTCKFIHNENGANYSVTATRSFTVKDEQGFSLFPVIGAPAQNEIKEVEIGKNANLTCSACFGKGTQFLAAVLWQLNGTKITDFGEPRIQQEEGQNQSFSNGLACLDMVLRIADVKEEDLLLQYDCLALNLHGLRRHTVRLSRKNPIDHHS
# These are yes or no findings as the source states them, for the method shown. Some entries that bind do so weakly or less than the wild type.
# B1: Antibody ra170 (rabbit IgG1) (antibody, V domains shown)
# VH: QSVEESGGRLVTPGTPLTLTCTVSGFSLSSHDMSWVRQAPGKGLEWIGYIWSDDNTYYASWAKGRFTISKTSTTVDLKITSPTTEDTATYFCARDQYRSSGVSDYDIWGPGTLVTVSS
# VL: AAVLTQTPSPVSAAVGGTVTISCQSSQSVGNNNDLAWYQQKPGQPPKILIYKASTLASGVPSRFEGSGSGTQFTLTISDVQCDDAATYYCLGGYDDDADNTFGGGTEVVVK
# Molecular target: human IL33 Receptor ST2, His-tagged (ST2 wildtype) (human) (UniProt Q01638)
# Test: SPR (BIAcore T100, 25 C), His-tagged ST2 captured by Penta-His, antibody at 100 nM
binder,measurement,value
B1,binding,binds
